Laboratory results: the supplement of paper PMC6411743
± gives the standard deviation of the averaged measurements. The list shows a part of the results, in another mix than the full data. Small differences around the control level are noise.

Amino acid sequences for entries named in this document (tags omitted). A change or cut given only in a name is not applied to a line headed by its entry.
UniProt Q86Y39: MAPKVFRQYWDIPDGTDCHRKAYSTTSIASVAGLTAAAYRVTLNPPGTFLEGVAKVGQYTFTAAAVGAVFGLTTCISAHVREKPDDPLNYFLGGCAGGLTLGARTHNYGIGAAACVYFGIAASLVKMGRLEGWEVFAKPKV
UniProt Q8NG11: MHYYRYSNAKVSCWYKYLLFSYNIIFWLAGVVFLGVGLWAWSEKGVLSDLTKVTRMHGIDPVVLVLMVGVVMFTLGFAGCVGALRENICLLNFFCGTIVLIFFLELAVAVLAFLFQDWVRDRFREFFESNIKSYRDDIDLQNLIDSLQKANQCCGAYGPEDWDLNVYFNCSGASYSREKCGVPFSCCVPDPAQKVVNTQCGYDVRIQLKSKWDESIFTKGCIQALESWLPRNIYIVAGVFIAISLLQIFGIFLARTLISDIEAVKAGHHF
UniProt Q13620, whole entry: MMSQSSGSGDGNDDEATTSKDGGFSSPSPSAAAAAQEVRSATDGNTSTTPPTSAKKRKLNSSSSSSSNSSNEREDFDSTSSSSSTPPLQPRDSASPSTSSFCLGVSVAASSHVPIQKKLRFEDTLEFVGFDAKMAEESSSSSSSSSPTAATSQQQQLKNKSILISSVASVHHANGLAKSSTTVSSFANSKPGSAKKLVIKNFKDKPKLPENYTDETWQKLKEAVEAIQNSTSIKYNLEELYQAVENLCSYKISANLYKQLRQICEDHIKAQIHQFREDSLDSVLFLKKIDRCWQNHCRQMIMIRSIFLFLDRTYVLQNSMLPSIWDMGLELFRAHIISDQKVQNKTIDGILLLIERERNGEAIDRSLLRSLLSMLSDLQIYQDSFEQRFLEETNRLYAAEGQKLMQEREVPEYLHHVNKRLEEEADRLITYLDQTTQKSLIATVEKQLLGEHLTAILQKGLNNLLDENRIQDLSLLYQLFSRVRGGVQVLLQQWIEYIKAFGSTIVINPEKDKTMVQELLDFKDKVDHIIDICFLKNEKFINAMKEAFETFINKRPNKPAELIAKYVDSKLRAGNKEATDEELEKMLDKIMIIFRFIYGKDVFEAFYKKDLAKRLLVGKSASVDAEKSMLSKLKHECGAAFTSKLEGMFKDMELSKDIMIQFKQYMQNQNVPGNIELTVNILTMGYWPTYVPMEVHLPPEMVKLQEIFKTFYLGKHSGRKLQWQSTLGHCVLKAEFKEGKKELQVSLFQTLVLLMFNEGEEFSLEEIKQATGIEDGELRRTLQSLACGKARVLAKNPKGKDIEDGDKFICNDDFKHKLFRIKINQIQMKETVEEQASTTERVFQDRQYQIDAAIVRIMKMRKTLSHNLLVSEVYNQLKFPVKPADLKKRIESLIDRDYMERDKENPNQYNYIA
UniProt Q96S82: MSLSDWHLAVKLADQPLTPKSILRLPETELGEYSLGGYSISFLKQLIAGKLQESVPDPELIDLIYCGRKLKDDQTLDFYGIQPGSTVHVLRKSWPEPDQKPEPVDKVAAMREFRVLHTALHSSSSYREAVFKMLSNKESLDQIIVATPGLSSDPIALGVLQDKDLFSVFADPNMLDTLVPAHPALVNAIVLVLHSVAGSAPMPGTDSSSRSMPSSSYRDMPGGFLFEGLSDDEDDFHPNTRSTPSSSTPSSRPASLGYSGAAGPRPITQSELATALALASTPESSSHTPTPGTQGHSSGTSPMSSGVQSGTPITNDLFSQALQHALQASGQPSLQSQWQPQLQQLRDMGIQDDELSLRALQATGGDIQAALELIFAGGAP
UniProt Q13227: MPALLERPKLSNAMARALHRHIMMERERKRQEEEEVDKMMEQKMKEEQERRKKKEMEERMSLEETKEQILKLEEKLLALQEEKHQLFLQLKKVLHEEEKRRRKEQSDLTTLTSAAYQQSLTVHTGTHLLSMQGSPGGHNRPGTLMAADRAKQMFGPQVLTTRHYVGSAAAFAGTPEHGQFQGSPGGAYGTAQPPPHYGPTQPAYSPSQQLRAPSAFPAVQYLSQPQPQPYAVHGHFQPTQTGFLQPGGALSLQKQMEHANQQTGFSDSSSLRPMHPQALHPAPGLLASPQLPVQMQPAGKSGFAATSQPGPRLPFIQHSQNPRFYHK
UniProt P20674, whole entry: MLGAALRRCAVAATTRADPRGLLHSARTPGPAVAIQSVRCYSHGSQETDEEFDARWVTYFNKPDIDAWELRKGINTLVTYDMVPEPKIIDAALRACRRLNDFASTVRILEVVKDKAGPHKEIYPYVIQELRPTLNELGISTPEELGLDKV
UniProt Q8N2G8: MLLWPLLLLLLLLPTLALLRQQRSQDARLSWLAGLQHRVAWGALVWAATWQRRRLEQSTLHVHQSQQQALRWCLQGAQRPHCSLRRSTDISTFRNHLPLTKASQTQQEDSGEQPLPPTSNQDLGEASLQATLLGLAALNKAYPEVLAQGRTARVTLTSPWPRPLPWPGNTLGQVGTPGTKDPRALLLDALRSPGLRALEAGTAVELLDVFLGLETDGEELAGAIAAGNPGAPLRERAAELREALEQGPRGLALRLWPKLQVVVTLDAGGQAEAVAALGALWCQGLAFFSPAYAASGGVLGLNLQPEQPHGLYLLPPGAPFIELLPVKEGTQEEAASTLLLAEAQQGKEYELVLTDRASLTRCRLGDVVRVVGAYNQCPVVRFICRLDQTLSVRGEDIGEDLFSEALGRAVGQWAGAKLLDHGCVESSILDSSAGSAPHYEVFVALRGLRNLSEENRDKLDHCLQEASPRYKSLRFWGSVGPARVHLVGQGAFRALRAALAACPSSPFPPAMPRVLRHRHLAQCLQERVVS
UniProt Q9Y2V0: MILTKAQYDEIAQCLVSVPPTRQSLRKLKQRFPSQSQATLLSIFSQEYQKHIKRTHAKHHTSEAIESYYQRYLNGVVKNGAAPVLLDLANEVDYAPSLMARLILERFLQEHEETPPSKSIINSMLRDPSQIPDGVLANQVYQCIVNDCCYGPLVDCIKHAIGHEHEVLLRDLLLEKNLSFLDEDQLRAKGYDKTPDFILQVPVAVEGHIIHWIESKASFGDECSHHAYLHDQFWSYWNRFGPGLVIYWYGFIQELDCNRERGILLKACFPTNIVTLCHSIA
UniProt P80404: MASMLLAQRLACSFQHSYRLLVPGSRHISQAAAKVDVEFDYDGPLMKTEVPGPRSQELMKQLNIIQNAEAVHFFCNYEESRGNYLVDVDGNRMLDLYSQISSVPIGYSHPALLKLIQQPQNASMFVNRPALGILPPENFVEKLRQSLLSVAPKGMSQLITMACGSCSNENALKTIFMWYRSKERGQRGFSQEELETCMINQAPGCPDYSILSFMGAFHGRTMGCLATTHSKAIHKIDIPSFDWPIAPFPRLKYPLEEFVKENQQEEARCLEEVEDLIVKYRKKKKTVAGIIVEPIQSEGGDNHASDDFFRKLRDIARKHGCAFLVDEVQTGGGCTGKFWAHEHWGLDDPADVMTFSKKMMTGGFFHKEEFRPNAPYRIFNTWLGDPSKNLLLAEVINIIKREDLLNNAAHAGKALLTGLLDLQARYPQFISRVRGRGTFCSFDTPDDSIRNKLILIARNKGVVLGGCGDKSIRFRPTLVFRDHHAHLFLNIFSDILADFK
UniProt P57678: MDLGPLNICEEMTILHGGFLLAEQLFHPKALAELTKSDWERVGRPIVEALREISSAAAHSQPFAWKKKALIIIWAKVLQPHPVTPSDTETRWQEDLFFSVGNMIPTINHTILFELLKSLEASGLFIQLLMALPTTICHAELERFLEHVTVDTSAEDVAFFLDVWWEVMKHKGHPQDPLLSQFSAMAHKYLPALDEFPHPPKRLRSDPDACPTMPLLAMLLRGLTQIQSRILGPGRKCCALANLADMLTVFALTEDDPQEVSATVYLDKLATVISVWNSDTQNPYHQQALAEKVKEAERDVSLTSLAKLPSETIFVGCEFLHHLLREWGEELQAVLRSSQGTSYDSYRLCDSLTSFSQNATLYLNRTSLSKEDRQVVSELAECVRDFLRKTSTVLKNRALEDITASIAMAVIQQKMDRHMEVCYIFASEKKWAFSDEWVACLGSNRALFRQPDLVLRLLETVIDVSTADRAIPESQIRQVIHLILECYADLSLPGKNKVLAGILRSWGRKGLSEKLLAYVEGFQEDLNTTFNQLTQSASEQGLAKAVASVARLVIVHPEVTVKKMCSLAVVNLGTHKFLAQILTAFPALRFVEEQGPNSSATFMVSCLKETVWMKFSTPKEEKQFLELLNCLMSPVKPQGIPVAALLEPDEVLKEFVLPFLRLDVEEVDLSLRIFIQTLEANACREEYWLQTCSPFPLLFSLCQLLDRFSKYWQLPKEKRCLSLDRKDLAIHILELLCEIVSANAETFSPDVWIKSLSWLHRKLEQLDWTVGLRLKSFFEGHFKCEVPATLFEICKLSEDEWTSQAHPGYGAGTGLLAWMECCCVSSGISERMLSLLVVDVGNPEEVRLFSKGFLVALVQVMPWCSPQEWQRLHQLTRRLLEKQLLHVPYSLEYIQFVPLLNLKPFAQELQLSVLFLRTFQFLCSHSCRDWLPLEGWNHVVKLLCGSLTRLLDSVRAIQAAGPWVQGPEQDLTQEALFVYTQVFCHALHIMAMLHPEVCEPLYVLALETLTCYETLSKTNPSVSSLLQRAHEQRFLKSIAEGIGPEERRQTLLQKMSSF
UniProt O43707, whole entry: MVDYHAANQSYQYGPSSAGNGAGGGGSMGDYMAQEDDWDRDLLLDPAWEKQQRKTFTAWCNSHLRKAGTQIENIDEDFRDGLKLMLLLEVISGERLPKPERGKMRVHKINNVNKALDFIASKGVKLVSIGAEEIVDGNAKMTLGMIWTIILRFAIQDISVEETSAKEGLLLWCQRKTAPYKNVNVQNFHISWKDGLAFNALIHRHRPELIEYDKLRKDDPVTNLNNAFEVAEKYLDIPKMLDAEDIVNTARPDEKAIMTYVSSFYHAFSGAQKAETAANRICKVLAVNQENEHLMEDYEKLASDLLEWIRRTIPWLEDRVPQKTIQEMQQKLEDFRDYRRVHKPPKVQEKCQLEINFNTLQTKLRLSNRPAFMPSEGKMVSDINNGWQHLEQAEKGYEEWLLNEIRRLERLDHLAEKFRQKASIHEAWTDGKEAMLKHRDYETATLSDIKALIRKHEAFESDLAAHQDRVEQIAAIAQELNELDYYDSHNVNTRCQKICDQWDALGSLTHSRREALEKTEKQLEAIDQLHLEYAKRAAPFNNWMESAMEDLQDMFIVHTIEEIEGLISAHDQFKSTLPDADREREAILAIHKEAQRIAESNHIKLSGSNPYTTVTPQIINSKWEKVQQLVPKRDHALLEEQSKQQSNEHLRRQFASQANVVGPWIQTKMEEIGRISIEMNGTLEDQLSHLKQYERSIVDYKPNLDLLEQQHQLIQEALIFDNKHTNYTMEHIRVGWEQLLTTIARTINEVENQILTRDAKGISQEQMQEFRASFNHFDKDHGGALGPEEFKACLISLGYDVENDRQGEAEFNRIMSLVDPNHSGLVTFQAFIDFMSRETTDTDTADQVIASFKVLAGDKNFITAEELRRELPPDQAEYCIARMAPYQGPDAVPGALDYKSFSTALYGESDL
UniProt Q6WCQ1: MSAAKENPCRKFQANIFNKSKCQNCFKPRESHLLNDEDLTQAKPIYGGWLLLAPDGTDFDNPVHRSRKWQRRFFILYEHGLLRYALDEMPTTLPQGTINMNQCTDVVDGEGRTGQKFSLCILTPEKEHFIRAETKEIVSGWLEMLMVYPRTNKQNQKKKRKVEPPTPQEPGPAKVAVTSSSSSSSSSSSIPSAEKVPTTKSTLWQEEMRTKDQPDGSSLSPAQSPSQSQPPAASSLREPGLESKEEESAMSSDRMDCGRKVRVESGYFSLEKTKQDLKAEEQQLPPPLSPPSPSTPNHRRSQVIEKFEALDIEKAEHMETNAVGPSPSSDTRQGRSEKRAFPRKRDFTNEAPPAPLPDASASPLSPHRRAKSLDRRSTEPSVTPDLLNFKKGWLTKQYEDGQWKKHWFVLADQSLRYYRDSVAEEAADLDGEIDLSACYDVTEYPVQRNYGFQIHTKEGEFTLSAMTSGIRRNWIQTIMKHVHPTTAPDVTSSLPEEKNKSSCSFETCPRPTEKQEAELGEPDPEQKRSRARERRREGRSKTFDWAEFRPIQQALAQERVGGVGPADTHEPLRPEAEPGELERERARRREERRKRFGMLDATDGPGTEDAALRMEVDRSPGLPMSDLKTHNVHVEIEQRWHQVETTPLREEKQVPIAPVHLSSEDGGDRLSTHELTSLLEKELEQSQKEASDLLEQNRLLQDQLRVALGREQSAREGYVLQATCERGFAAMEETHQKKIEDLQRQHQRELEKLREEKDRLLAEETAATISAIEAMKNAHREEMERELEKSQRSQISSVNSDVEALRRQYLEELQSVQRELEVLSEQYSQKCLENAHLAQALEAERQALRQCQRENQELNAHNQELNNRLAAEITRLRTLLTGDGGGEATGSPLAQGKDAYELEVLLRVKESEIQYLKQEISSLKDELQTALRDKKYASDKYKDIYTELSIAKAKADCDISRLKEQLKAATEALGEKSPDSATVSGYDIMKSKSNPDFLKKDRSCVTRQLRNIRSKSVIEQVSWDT

Compound: Nc1ncnc2c1ncn2[C@@H]1O[C@H](COP(=O)(O)OP(=O)(O)OP(=O)(O)O)[C@@H](O)[C@H]1O [adenosine triphosphate]
Test: NP40-soluble protein abundance relative to vehicle (solubility fold change) (ratio); higher = more soluble protein in presence of ATP
Summary of the method: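 Each value is a fold change relative to the detergent-processed vehicle, calculated per replicate from vsn-normalised intensities. Jurkat crude lysate received eight concentrations (0.1 to 10 mM) for 10 min at room temperature and 3 min at 37 °C, then was solubilised in 0.8% NP40 with benzonase (60 min, 4 °C). The ultracentrifuged supernatant was TMT-labelled and run by LC-MS/MS in three independent experiments.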

| Target | NP40-soluble protein abundance (concentration: 0.1mM) | NP40-soluble protein abundance (concentration: 0.5mM) |
| --- | --- | --- |
| K7EK78 and related entries (UniProt Q86Y39+K7EQ77+K7EP35+K7EMT4+K7EK78) | 1.15 ± 0.19 | 1.17 ± 0.3 |
| H7BXY6 and related entries (UniProt Q8NG11) | 0.938 ± 0.045 | 0.96 ± 0.065 |
| I3L4C2 and related entries (UniProt Q9UQB8) | 0.977 ± 0.023 | 0.931 ± 0.059 |
| H3BP16 and related entries (UniProt Q9NVX0) | 0.979 ± 0.059 | 1.02 ± 0.036 |
| K4DI93 and related entries (UniProt Q13620) | 0.998 ± 0.08 | 1.02 ± 0.042 |
| H3BV23 and related entries (UniProt Q96S82) | 0.928 ± 0.097 | 0.865 ± 0.13 |
| K7ELE3 and related entries (UniProt Q08117) | 0.945 ± 0.1 | 0.883 ± 0.087 |
| I3L4X7 and related entries (UniProt Q13227) | 0.97 ± 0.058 | 0.968 ± 0.018 |
| I3L112 and related entries (UniProt P52429) | 0.987 ± 0.021 | 0.904 ± 0.057 |
| H0Y5M1 and related entries (UniProt P04844) | 1.06 ± 0.13 | 1.07 ± 0.097 |
| H3BTA2 and related entries (UniProt P60510) | 1.04 ± 0.068 | 1.05 ± 0.06 |
| H3BNM4 and related entries (UniProt Q8NBZ0) | 0.979 ± 0.17 | 1.04 ± 0.18 |
| H3BNX8 and related entries (UniProt P20674) | 0.953 ± 0.07 | 0.897 ± 0.092 |
| H7C096 and related entries (UniProt Q12982) | 0.978 ± 0.06 | 0.966 ± 0.076 |
| H6UMI1 and related entries (UniProt O95166) | 0.923 ± 0.065 | 0.987 ± 0.022 |
| H1UBN3 and related entries (UniProt O95067+H1UBN3) | 0.996 ± 0.089 | 0.955 ± 0.084 |

Whole records from above.
K7EK78 and related entries (UniProt Q86Y39+K7EQ77+K7EP35+K7EMT4+K7EK78) as listed: NP40-soluble protein abundance (concentration: 0.1mM): 1.15 ± 0.19; NP40-soluble protein abundance (concentration: 0.5mM): 1.17 ± 0.3
H3BNM4 and related entries (UniProt Q8NBZ0) as listed: NP40-soluble protein abundance (concentration: 0.1mM): 0.979 ± 0.17; NP40-soluble protein abundance (concentration: 0.5mM): 1.04 ± 0.18

Additional records follow.

| Target | NP40-soluble protein abundance (concentration: 0.1mM) | NP40-soluble protein abundance (concentration: 0.5mM) |
| --- | --- | --- |
| J3KSB5 and related entries (UniProt P21359) | 1.02 ± 0.069 | 1.07 ± 0.12 |
| H0Y9X1 and related entries (UniProt Q96EY4) | 0.905 ± 0.055 | 0.907 ± 0.046 |
| K7ESN3 and related entries (UniProt Q8N2G8) | 0.997 ± 0.17 | 1.04 ± 0.095 |
| K7EK07 and related entries (UniProt P84243+K7EK07) | 0.855 ± 0.16 | 0.865 ± 0.061 |
| H3BNF9 and related entries (UniProt Q9Y2V0) | 0.9769 ± 0.0047 | 0.9806 ± 0.0061 |
| H3BRN4 and related entries (UniProt P80404) | 1.04 ± 0.06 | 0.993 ± 0.023 |
| H0Y6T6 and related entries (UniProt Q8IXM6) | 0.969 ± 0.081 | 1 ± 0.022 |
| H7BYY1 and related entries (UniProt P09493) | 0.826 ± 0.18 | 0.777 ± 0.18 |
| I3L121 and related entries (UniProt Q96AJ1) | 1.04 ± 0.074 | 1.05 ± 0.031 |
| J3QK89 and related entries (UniProt Q8IWX8) | 1.03 ± 0.038 | 1.1 ± 0.049 |
| I3L2B0 and related entries (UniProt O75153) | 1.02 ± 0.049 | 1 ± 0.041 |
| I3L2C7 and related entries (UniProt P57678) | 0.978 ± 0.072 | 0.982 ± 0.099 |
| K7EJH8 and related entries (UniProt O43707) | 0.898 ± 0.053 | 0.876 ± 0.066 |
| H0Y2S9 and related entries (UniProt Q6WCQ1) | 0.974 ± 0.076 | 1.13 ± 0.03 |
| J3KQ40 and related entries (UniProt O95759) | 1.09 ± 0.18 | 1.03 ± 0.12 |
| H0Y8W3 and related entries (UniProt O43566) | 1 ± 0.021 | 1 ± 0.013 |
